Assay results: PMC9040617
These are yes or no findings as the source states them, for the method shown. In cells and extracts the contact can be indirect. A yes stands for co-enrichment or nearness to the bait. Other partners may have been found. No binding means not detected with the bait.

Target: 4468-D61F-MBP (Myxococcus xanthus DK1622) (UniProt Q1D3Y4)
Assay: affinity purification with mass spectrometry; purified MBP-tagged MXAN_4468 (wild type, D61V or D61F) plus MBP filler mixed with the supernatant of sonicated DK1622 cells, 4°C for 4 h; washed on the column, eluted with 10 mM maltose; eluate identified by mass spectrometry; MBP plus filler and filler alone as controls; only the target purified

B1: HrcA (MXAN_6726) (protein, UniProt Q1CXN0 1-343)
chain: MSEELGEREKEVLRAVVQEYISTGGPVGSQQLTRRPGFEVSSATMRNVLADLEELGFLEKPHTSAGRVPTDQGYRFYVDTLVKLKDPTPRDRELIHAGLAHEADLAEMLGEASRILHSLTRHAGVVVAPRPESAVFRRIEFVRLREDRVLAILVGQSGQVHNKAITVEFPITSDELLKASNYLSELLREVPLESARERIRAEMDQEQALYNALTAKALKLGAAATDLASTERMLIQGTGSFFEQPEFADVERMRALFRALDEKHKLLSLLDRVQVANEMQIFIGAESDFSAAGDVTVIASPYGNQEQVLGTVGVIGPTRMDYRRVIPLVNFTAQVLSRVLEKV
- binding: no binding
